Test results published in the supplement of paper PMC10849652.
This is one part of the list.

By UniProt entry, the sequences of proteins in these tests, tags left out. Where a name states a change or a piece, a line headed by the entry shows the natural chain unless it says otherwise.
UniProt Q9BVA0, whole entry, looked up: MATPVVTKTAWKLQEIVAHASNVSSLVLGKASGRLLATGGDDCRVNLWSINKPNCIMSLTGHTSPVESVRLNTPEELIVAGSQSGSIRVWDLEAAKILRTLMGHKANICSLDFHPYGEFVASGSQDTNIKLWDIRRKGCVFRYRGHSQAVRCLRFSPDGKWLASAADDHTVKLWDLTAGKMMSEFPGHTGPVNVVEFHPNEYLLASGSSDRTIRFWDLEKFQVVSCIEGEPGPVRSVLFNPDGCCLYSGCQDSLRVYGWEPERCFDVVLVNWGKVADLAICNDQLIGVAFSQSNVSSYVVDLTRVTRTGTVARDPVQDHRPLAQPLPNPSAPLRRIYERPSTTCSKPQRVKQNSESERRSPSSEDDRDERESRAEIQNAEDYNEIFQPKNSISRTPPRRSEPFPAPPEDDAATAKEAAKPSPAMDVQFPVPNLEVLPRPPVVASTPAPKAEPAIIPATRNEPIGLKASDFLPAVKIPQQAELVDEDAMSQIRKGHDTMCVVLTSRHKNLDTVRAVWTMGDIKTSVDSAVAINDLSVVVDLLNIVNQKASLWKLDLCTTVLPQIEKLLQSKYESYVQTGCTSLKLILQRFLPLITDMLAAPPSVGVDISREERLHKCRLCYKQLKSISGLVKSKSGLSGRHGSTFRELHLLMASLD
UniProt Q8WZA9: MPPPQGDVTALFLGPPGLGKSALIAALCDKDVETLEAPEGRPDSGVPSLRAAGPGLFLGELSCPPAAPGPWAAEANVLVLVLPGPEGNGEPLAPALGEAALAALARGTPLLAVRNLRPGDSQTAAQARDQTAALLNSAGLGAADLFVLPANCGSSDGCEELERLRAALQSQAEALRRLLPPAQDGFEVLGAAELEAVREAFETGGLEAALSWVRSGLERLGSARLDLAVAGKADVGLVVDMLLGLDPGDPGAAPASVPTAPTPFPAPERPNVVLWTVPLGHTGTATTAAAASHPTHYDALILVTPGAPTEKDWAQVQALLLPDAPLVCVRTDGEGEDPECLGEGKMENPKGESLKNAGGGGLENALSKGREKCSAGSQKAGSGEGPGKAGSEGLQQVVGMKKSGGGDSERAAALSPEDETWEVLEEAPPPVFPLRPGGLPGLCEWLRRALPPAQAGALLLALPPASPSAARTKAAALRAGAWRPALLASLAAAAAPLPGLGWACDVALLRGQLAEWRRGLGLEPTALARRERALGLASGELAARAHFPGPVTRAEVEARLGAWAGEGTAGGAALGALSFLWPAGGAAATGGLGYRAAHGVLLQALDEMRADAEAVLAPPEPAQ
UniProt Q68E01, whole entry, looked up: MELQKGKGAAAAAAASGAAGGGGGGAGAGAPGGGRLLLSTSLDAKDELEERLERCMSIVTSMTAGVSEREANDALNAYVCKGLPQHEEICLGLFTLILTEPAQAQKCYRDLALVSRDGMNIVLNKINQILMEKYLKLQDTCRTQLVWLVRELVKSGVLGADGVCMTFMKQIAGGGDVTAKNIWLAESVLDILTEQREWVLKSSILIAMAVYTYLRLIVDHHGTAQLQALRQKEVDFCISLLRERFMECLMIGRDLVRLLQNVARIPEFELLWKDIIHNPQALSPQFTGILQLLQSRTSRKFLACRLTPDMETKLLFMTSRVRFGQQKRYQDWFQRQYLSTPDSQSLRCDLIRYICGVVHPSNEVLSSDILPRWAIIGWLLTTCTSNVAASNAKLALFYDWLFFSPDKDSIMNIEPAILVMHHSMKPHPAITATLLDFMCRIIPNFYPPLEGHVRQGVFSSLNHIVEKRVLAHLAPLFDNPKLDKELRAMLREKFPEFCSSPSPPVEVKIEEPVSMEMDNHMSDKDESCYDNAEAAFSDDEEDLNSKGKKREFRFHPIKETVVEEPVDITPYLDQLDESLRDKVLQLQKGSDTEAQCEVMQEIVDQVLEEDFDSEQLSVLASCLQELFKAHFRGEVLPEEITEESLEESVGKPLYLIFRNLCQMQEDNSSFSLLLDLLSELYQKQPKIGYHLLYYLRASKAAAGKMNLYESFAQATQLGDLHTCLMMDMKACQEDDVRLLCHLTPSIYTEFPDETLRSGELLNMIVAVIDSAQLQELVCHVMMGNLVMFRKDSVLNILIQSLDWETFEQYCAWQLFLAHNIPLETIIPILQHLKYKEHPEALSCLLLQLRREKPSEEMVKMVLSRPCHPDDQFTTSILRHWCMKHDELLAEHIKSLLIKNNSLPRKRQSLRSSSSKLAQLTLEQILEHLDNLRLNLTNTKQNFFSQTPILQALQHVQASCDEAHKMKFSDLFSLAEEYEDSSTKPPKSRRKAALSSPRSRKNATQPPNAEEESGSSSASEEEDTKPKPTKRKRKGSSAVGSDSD
UniProt P23677, whole entry, looked up: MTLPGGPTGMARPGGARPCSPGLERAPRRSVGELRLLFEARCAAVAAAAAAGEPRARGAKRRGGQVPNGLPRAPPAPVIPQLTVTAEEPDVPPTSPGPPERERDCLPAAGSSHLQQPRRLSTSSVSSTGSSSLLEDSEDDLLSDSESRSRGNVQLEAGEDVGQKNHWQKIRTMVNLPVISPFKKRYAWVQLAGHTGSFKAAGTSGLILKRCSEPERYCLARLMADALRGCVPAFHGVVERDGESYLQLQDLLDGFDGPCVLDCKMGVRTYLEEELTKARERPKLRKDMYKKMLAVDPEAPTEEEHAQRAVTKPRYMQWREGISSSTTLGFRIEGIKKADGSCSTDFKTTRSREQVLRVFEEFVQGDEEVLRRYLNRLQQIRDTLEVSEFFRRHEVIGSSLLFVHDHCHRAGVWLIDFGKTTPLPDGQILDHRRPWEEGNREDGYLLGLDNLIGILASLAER
UniProt Q9NWZ3, whole entry, looked up: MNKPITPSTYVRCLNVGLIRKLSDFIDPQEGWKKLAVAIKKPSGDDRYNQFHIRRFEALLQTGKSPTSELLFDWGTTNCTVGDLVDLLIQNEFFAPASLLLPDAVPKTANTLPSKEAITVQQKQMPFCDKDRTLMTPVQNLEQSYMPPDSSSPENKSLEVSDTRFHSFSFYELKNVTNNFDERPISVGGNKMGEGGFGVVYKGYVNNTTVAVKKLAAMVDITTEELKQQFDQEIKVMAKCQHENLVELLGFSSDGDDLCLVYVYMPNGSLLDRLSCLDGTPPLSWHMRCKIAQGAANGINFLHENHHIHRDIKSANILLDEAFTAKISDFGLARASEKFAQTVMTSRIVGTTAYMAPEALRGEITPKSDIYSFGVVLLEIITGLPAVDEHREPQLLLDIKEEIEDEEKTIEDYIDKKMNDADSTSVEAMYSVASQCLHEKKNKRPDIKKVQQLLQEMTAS
UniProt Q92551: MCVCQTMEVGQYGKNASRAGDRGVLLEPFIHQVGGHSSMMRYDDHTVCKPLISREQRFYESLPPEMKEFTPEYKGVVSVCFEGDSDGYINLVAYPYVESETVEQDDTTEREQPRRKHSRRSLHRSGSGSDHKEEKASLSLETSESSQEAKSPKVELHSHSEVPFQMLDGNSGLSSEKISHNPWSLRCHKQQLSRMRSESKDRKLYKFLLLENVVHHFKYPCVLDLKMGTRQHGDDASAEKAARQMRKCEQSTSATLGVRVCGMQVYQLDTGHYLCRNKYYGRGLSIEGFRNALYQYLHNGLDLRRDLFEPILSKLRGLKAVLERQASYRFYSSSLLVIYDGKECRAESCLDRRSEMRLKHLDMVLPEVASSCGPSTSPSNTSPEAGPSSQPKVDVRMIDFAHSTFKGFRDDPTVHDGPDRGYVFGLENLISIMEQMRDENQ
UniProt Q674X7: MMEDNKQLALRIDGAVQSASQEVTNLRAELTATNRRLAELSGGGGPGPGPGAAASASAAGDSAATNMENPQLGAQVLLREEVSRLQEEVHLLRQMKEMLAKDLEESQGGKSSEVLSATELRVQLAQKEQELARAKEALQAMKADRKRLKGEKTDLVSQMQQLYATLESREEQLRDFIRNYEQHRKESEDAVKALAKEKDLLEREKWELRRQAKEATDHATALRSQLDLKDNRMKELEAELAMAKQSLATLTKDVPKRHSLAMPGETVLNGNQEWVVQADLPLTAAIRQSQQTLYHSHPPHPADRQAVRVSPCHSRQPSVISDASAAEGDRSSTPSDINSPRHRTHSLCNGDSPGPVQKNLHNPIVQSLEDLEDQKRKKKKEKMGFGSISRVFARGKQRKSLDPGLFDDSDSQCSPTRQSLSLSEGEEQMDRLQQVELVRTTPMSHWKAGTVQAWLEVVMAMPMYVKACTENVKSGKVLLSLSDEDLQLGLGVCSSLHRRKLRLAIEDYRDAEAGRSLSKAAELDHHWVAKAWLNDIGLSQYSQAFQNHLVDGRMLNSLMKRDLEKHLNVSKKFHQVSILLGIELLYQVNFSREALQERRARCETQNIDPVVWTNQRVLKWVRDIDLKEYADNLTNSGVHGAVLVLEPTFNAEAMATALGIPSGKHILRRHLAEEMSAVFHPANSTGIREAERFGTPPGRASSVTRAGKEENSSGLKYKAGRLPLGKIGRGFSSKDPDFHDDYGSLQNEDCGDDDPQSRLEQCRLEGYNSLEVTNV
UniProt Q9P0J7: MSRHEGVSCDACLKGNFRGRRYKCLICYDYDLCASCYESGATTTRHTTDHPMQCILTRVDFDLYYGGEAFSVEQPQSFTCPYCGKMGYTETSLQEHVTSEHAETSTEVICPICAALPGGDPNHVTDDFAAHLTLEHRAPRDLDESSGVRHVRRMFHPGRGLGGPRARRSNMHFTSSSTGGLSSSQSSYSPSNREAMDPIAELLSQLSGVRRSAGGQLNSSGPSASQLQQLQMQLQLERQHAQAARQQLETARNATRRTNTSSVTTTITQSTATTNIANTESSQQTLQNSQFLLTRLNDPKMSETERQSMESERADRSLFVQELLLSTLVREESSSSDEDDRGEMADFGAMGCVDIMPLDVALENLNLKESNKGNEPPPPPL
UniProt O14713: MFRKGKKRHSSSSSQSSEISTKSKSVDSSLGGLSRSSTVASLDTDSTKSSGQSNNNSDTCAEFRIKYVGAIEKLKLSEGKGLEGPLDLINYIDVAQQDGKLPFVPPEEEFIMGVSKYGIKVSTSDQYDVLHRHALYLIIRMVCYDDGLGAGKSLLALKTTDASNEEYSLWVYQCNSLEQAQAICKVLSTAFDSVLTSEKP
UniProt Q9Y2K7: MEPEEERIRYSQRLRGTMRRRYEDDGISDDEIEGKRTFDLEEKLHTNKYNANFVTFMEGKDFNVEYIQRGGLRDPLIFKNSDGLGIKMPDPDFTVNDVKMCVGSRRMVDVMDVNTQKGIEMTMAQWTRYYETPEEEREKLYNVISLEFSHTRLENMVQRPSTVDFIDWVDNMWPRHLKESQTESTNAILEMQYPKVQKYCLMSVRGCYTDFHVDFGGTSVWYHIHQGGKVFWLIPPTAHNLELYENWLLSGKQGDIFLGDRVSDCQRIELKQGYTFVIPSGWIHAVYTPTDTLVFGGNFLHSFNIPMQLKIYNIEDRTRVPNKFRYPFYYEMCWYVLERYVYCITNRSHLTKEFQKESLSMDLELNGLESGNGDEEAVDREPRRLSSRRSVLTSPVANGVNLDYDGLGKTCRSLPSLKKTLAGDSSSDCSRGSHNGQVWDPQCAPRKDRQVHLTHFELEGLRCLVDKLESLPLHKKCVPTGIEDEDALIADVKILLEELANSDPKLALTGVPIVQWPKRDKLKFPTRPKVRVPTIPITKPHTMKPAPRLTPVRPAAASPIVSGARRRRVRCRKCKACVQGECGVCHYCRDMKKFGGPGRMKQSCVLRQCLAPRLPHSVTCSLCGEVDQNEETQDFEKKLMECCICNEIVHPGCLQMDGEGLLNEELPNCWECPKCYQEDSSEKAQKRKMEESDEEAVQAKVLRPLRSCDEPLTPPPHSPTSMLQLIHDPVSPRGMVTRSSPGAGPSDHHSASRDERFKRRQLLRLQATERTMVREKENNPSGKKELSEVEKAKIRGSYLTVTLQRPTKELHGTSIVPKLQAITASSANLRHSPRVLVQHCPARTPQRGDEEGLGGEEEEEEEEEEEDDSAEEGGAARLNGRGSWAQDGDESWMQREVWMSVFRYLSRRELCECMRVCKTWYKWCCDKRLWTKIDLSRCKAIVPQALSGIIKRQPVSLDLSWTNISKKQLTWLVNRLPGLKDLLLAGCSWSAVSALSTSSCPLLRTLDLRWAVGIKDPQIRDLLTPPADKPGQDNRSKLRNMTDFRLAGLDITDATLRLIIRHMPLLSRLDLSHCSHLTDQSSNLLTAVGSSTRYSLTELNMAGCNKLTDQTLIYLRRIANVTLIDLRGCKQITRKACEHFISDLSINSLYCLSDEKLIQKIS
UniProt O76095: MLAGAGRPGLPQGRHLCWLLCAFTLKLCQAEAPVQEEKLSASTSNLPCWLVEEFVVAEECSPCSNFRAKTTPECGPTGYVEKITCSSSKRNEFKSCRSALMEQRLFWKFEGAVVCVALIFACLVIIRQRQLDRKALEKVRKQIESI
UniProt Q9BUE6: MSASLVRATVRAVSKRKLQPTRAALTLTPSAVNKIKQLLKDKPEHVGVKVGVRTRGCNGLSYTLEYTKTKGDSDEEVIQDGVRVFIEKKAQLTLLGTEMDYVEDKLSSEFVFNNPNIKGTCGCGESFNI

Tests used:
Assay in all cases: log2 fold change, soluble protein after heating vs DMSO (PISA); higher = thermal stabilisation; K562 lysate, 10 uM; active = over 0.2 and 3.5 SD of the protein, either way, in both replicates (recomputed)
erlotinib = compound: C#Cc1cccc(Nc2ncnc3cc(OCCOC)c(OCCOC)cc23)c1 [erlotinib]
Summary of the method: (§1)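 A 30 min treatment with 10 μM compound was applied to crude K562 extract at 1 mg/mL protein in PBS pH 7.4 with 1 mM MgCl2. Heating for 3 min spanned 48°C-58°C, after which aliquots were pooled, adjusted to 0.5% NP-40 at 4°C and spun at 21,000xg for 90 min. TMTpro 16plex LC-MS/MS of the supernatant, with channel sums equalised, gave values recorded as log-two fold change in thermal stability against solvent controls, from duplicates.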

[1] = compound: C/C(=N\NC(=O)C1=CC(=CC=C1)S(=O)(=O)N2CCOCC2)/C3=C(C=CC(=C3)Cl)O
Summary of the method: as §1

[2] = compound: C1=CC(=CC=C1C2=NC3=C(N2)C=C(C=C3)C(=O)N)OC4=CC=C(C=C4)Cl
Summary of the method: as §1

[3] = compound: C1=CC2=C(C=CC(=C2)/C=C\3/C(=O)NC(=NCC4=CC=CS4)S3)N=C1
Summary of the method: as §1

[4] = compound: C1=CC2=NC=CN=C2C=C1/C=C/3\C(=O)NC(=O)S3
Summary of the method: as §1

[5] = compound: C1=CC=C(C=C1)C2=NC(=C(N2)C3=CC=NC=C3)C4=CC(=C(C=C4)Cl)O
Summary of the method: as §1

[6] = compound: C1=CC=C2C(=C1)C3=NNC4=CC=CC(=C43)C2=O
Summary of the method: as §1

[7] = compound: C1CCN(C1)C(=O)NC2=CC=CC(=C2)NC3=NC=C(C(=N3)NCCC4=CN=CN4)Br
Summary of the method: as §1

[8] = compound: C1CN(CCC1(CC2=CC=C(C=C2)Cl)N)C3=NC=NC4=C3C=CN4
Summary of the method: as §1

IRAK-1-4 Inhibitor I = compound: C1COCCN1CCN2C3=CC=CC=C3N=C2NC(=O)C4=CC(=CC=C4)[N+](=O)[O-] [IRAK-1-4 Inhibitor I]
Summary of the method: as §1

Measured: log2 fold change

ITSN2 (UniProt Q9NZM3)
inactive: erlotinib -0.066 | [1] 0.012 | [2] 0.04 | [3] 0.009 | [4] -0.023 | [5] -0.043 | [6] -0.007 | [7] -0.015 | [8] 0.011 | IRAK-1-4 Inhibitor I -0.037

INTS4 (UniProt Q96HW7)
inactive: erlotinib -0.026 | [1] -0.061 | [2] 0.008 | [3] 0.015 | [4] -0.01 | [5] -0.013 | [6] -0.014 | [7] -0.078 | [8] 0.007 | IRAK-1-4 Inhibitor I 0.111

KATNB1 (UniProt Q9BVA0)
inactive: erlotinib 0.096 | [1] 0.006 | [2] 0.052 | [3] 0.018 | [4] -0.006 | [5] -0.002 | [6] -0.053 | [7] 0.02 | [8] -0.055 | IRAK-1-4 Inhibitor I 0.009

IPO5 isoform 3 (UniProt O00410)
inactive: erlotinib 0.009 | [1] 0.006 | [2] -0.018 | [3] 0.004 | [4] 0.008 | [5] -0.007 | [6] 0.031 | [7] -0.012 | [8] 0.033 | IRAK-1-4 Inhibitor I 0.031

IRGQ (UniProt Q8WZA9)
inactive: erlotinib 0.02 | [1] 0.038 | [2] 0.004 | [3] 0 | [4] -0.005 | [5] 0 | [6] -0.009 | [7] -0.021 | [8] 0.024 | IRAK-1-4 Inhibitor I -0.01

INTS3 (UniProt Q68E01)
inactive: erlotinib 0.015 | [1] 0.035 | [2] 0.021 | [3] -0.002 | [4] -0.008 | [5] -0.043 | [6] -0.005 | [7] 0.026 | [8] -0.083 | IRAK-1-4 Inhibitor I 0.016

Copied from the results shown (2 entries):
IRGQ (UniProt Q8WZA9)
inactive: erlotinib 0.02 | [1] 0.038 | [2] 0.004 | [3] 0 | [4] -0.005 | [5] 0 | [6] -0.009 | [7] -0.021 | [8] 0.024 | IRAK-1-4 Inhibitor I -0.01

INTS3 (UniProt Q68E01)
inactive: erlotinib 0.015 | [1] 0.035 | [2] 0.021 | [3] -0.002 | [4] -0.008 | [5] -0.043 | [6] -0.005 | [7] 0.026 | [8] -0.083 | IRAK-1-4 Inhibitor I 0.016

Additional results follow:

KCTD15 (UniProt Q96SI1)
inactive: erlotinib -0.01 | [1] -0.128 | [2] 0.01 | [3] 0.031 | [4] 0.002 | [5] -0.019 | [6] 0.047 | [7] 0.074 | [8] -0.001 | IRAK-1-4 Inhibitor I 0.014

JAGN1 (UniProt Q8N5M9)
inactive: erlotinib 0.037 | [1] 0.02 | [2] -0.049 | [3] 0.078 | [4] -0.02 | [5] -0.022 | [6] 0.029 | [7] 0.002 | [8] -0.001 | IRAK-1-4 Inhibitor I 0.051

KAT6B (UniProt Q8WYB5)
inactive: erlotinib 0.023 | [1] 0.046 | [2] -0.101 | [3] -0.034 | [4] -0.072 | [5] 0.062 | [6] 0 | [7] -0.06 | [8] -0.003 | IRAK-1-4 Inhibitor I -0.168

ITPKA (UniProt P23677)
inactive: erlotinib 0.021 | [1] -0.042 | [2] 0.041 | [3] 0.043 | [4] 0.006 | [5] 0.046 | [6] 0.006 | [7] -0.07 | [8] 0.011 | IRAK-1-4 Inhibitor I -0.013

IRAK4 (UniProt Q9NWZ3)
inactive: erlotinib -0.03 | [1] -0.071 | [2] -0.037 | [3] -0.019 | [4] 0.037 | [5] 0.015 | [6] 0.223 | [8] -0.037 | IRAK-1-4 Inhibitor I 0.006
active: [7] 0.3

KAT7 (UniProt O95251)
inactive: erlotinib 0 | [1] 0.034 | [2] -0.011 | [3] -0.03 | [4] 0.032 | [5] -0.035 | [6] -0.004 | [7] -0.013 | [8] 0.094 | IRAK-1-4 Inhibitor I -0.027

IRF2BP2 (UniProt Q7Z5L9)
inactive: erlotinib -0.049 | [1] 0.026 | [2] 0.023 | [3] 0.002 | [4] -0.015 | [5] 0.018 | [6] -0.012 | [7] -0.018 | [8] -0.011 | IRAK-1-4 Inhibitor I 0.037

KDELR1 (UniProt P24390)
inactive: erlotinib -0.04 | [1] -0.244 | [2] 0.046 | [3] 0.065 | [4] -0.097 | [5] -0.074 | [6] -0.181 | [7] -0.03 | [8] 0.054 | IRAK-1-4 Inhibitor I -0.067

IP6K1 (UniProt Q92551)
inactive: erlotinib -0.036 | [1] -0.076 | [2] -0.016 | [3] 0.079 | [4] -0.102 | [5] 0.033 | [6] -0.06 | [7] 0.015 | [8] 0.076 | IRAK-1-4 Inhibitor I 0.015

KAZN (UniProt Q674X7)
inactive: erlotinib 0.002 | [1] -0.061 | [2] 0.165 | [3] 0 | [4] -0.011 | [5] -0.023 | [6] -0.022 | [7] -0.057 | [8] 0.039 | IRAK-1-4 Inhibitor I 0.063

KCMF1 (UniProt Q9P0J7)
inactive: erlotinib -0.019 | [1] 0.041 | [2] -0.013 | [3] 0.022 | [4] 0.021 | [5] 0.067 | [6] 0.016 | [7] 0 | [8] 0.011 | IRAK-1-4 Inhibitor I -0.026

ITPK1 (UniProt Q13572)
inactive: erlotinib -0.01 | [1] 0.1 | [2] 0.13 | [3] 0.109 | [4] -0.045 | [5] -0.005 | [6] -0.073 | [7] 0.026 | [8] -0.022 | IRAK-1-4 Inhibitor I 0.009

ITGB1BP1 (UniProt O14713)
inactive: erlotinib 0 | [1] -0.041 | [2] -0.065 | [3] 0.086 | [4] -0.103 | [5] -0.018 | [6] -0.026 | [7] 0.053 | [8] 0.205 | IRAK-1-4 Inhibitor I -0.054

KDM2A (UniProt Q9Y2K7)
inactive: erlotinib -0.141 | [1] -0.055 | [2] -0.062 | [3] 0.047 | [4] 0.067 | [5] 0.014 | [6] 0.003 | [7] 0.01 | [8] -0.072 | IRAK-1-4 Inhibitor I -0.071

ITGA2B (UniProt P08514)
inactive: erlotinib 0.068 | [1] -0.049 | [2] -0.225 | [3] -0.045 | [5] -0.027 | [6] -0.163 | IRAK-1-4 Inhibitor I 0.143

JTB (UniProt O76095)
inactive: erlotinib -0.07 | [1] 0.078 | [2] -0.012 | [3] 0.101 | [4] -0.139 | [5] 0.015 | [6] -0.212 | [7] 0.017 | [8] -0.003 | IRAK-1-4 Inhibitor I -0.003

IQGAP3 (UniProt Q86VI3)
inactive: erlotinib -0.064 | [1] 0.115 | [2] -0.017 | [3] -0.047 | [4] -0.062 | [5] 0.002 | [6] -0.143 | IRAK-1-4 Inhibitor I -0.065

KATNBL1 (UniProt Q9H079)
active: [8] -0.687
inactive: erlotinib -0.012 | [1] 0.009 | [2] -0.02 | [3] 0.064 | [6] -0.001 | [7] 0.045

IPO7 (UniProt O95373)
inactive: erlotinib 0.023 | [1] -0.005 | [2] 0 | [3] -0.018 | [4] 0.009 | [5] -0.014 | [6] 0.006 | [7] 0 | [8] 0.032 | IRAK-1-4 Inhibitor I 0.01

KDF1 (UniProt Q8NAX2)
inactive: erlotinib -0.024 | [1] -0.039 | [2] 0.032 | [3] 0.104 | [4] -0.049 | [6] -0.036

ISCA1 isoform 2 (UniProt Q9BUE6)
inactive: erlotinib -0.025 | [1] -0.036 | [2] 0.021 | [3] -0.007 | [4] -0.04 | [5] -0.033 | [6] -0.013 | [7] 0.003 | [8] -0.031 | IRAK-1-4 Inhibitor I 0.031

KDM3A (UniProt Q9Y4C1)
inactive: erlotinib -0.017 | [1] 0.043 | [2] -0.036 | [3] 0.001 | [4] -0.015 | [5] 0.021 | [6] 0.084 | [7] -0.031 | [8] 0.022 | IRAK-1-4 Inhibitor I -0.005

KCNK1 (UniProt O00180)
inactive: erlotinib 0.024 | [1] 0.109 | [2] -0.049 | [3] -0.246 | [4] -0.161 | [6] -0.091 | [7] 0.005 | [8] 0.011

KCNH2 (UniProt Q12809)
inactive: erlotinib -0.186 | [2] 0.202

ITPA (UniProt Q9BY32)
inactive: erlotinib 0.004 | [1] 0.021 | [2] 0.024 | [3] -0.014 | [4] 0.032 | [5] 0.02 | [6] -0.001 | [7] 0.059 | [8] 0.002 | IRAK-1-4 Inhibitor I 0.002

INTS6 (UniProt Q9UL03)
inactive: erlotinib -0.153 | [1] 0.01 | [2] -0.224 | [3] -0.032 | [4] -0.165 | [6] -0.125 | [7] 0.119 | [8] -0.071
